# Results are given in words; binding and its absence hold for the method and conditions named. Some results given as binding are weak or reduced against the parent protein; the word gives no strength.
# Sequences of proteins named here, by UniProt entry; tags and fusion partners are left off.
# UniProt Q96GD4: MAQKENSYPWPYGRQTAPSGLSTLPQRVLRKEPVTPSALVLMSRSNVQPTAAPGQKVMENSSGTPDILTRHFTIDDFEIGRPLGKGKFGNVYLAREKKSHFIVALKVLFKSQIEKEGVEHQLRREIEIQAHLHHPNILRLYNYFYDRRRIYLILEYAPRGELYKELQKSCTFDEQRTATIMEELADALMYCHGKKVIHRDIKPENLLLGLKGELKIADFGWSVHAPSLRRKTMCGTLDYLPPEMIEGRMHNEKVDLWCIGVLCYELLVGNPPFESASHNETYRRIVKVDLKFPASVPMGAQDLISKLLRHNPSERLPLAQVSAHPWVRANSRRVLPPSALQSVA
# UniProt O14950: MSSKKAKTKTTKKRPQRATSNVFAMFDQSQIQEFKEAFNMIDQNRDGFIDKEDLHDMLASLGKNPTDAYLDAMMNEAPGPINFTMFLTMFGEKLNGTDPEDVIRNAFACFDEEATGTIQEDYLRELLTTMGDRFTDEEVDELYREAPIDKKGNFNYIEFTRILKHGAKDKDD
# Molecular target: GST-Aurora B (UniProt Q96GD4)
# Experiment: pull-down; GST-Aurora B or GST on Glutathione-Sepharose (5 µL) incubated with 2-54 µg 2P-MRLC for 1 h at 4°C in binding buffer (45 mM HEPES-NaOH pH 7.2, 139 mM NaCl, 1 mM MgCl2, 0.3 mM CaCl2, 0.1% Triton X-100, 6.8 µg/mL CaM) with 14 µg/mL MLCK; bound MRLC detected by western blot; both purified
substance,measurement,value
"diphosphorylated MRLC (recombinant MRLC2, phosphorylated in vitro) (from UniProt O14950 1-172)",binding,binds

# Reference: article PMC3737224
